Test results as given in ChEMBL document CHEMBL3351903, “A potent HDAC inhibitor, 1-alaninechlamydocin, from a Tolypocladium sp. induces G2/M cell cycle arrest and apoptosis in MIA PaCa-2 cells” (J Nat Prod, 2014).

What was measured:
[1] = Antiproliferative activity against human MIAPaCa2 cells after 48 hrs by MTT assay; assay type: functional; details: MIA PaCa-2, 48 h
In short: (§1)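 Cells held in RPMI with 5% FetalClone III and penicillin/streptomycin (50 U/mL, 50 μg/mL); hTERT-HPNE also given 10 ng/mL recombinant human EGF; used within 3 months of thaw. 48 h compound exposure, DMSO ≤1% final, then MTT. Growth normalized to vehicle (100%) and to density at drug addition (0%); GI50 from nonlinear regression of triplicate wells.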

[2] = Antiproliferative activity against human PANC1 cells after 48 hrs by MTT assay; assay type: functional; details: PANC-1, 48 h; in short: as §1

## O=C(CCCCCCC(=O)Nc1ccccc1)NO [VORINOSTAT]
[1]
  TGI: 2.35 µM
[2]
  TGI: 3.26 µM
